Results from one PubChem assay

Source: PubChem BioAssay AID504749 (NCATS, 2011).

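Malaria parasite (P. falciparum) lines kept in red blood cells; parasite DNA is measured by SYBR Green fluorescence after lysis, 72 h after compound addition. Each compound was titrated across a series from about 0.000037 to 29 µM. The number is the fitted AC50, the concentration giving a half-maximal change in signal; a lower value means higher potency, whether the curve shows a decrease or an increase. Calls follow the curve class and fit quality: every row here is inconclusive, covering signal-raising curves and weak, poorly fitted, partial or highest-dose-only inhibition curves.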

Values are in nM. All entries here are filed as inconclusive. These entries are mostly ones the record files as inconclusive; other results of the assay are not listed here. A potency from a partial, single-point or poor curve is only a rough figure. Some entries filed as inconclusive have a full curve. The first word of each remark tells which way the curve ran; it can be opposite to the aim of the assay.

- C=CCC1(C(C)CCC)C(=O)N=C(S)NC1=O (stereo not shown) [CP262] | potency 13459 nM (inhibitor, partial curve, poor fit)
- C=CCC1(C(C)CCC)C(=O)N=C(S)NC1=O (stereo not shown) [DIV17] | potency 19011 nM (inhibitor, single point)
- C=CCC1(C(C)CCC)C(=O)N=C(S)NC1=O (stereo not shown) [DIV30] | potency 19011 nM (inhibitor, single point)
- C=CCC1(C(C)CCC)C(=O)N=C(S)NC1=O (stereo not shown) [CP203] | potency 19011 nM (inhibitor, single point)
- C=CCC1(C(C)CCC)C(=O)N=C(S)NC1=O (stereo not shown) [PC26] | potency 15101 nM (inhibitor, single point)
- C=CCC1(C(C)CCC)C(=O)N=C(S)NC1=O (stereo not shown) [CP215] | potency 19011 nM (inhibitor, single point)
- C=CCC1(C(C)CCC)C(=O)N=C(S)NC1=O (stereo not shown) [CP211] | potency 15101 nM (inhibitor, single point)
- C=CCC1(C(C)CCC)C(=O)N=C(S)NC1=O (stereo not shown) [CP201] | potency 19011 nM (inhibitor, single point)
- C=CCC1(C(C)CCC)C(=O)N=C(S)NC1=O (stereo not shown) [CP269] | potency 19011 nM (inhibitor, single point)
- C=CCC1(C(C)CCC)C(=O)N=C(S)NC1=O (stereo not shown) [CP192] | potency 11995 nM (inhibitor, single point)
- C=CCC1(C(C)CCC)C(=O)N=C(S)NC1=O (stereo not shown) [CP268] | potency 19011 nM (inhibitor, single point)
- C=CCC1(C(C)CCC)C(=O)N=C(S)NC1=O (stereo not shown) [CP315] | potency 19011 nM (inhibitor, single point)
- C=CCC1(C(C)CCC)C(=O)N=C(S)NC1=O (stereo not shown) [CP291] | potency 16944 nM (inhibitor, single point)
- C=CCC1(C(C)CCC)C(=O)N=C(S)NC1=O (stereo not shown) [CP325] | potency 21331 nM (inhibitor, partial curve, poor fit)
- C=CCC1(C(C)CCC)C(=O)N=C(S)NC1=O (stereo not shown) [GB4] | potency 16944 nM (inhibitor, single point)
- C=CCC1(C(C)CCC)C(=O)N=C(S)NC1=O (stereo not shown) [CP305] | potency 13459 nM (inhibitor, single point)
- C=CCC1(C(C)CCC)C(=O)N=C(S)NC1=O (stereo not shown) [CP329] | potency 16944 nM (inhibitor, single point)
- C=CCC1(C(C)CCC)C(=O)N=C(S)NC1=O (stereo not shown) [CP297] | potency 16944 nM (inhibitor, single point)
- C=CCC1(C(C)CCC)C(=O)N=C(S)NC1=O (stereo not shown) [CP194] | potency 16944 nM (inhibitor, single point)
- C=CCC1(C(C)CCC)C(=O)N=C(S)NC1=O (stereo not shown) [DIV14] | potency 21331 nM (inhibitor, single point)
- CN1C(=O)C[C@H](c2ccccc2)C1=O [parasite line A] | potency 56.2 nM (inhibitor, full curve, poor fit)
- CN1C(=O)C[C@H](c2ccccc2)C1=O [AS120] | potency 1.8 nM (inhibitor, full curve, poor fit)
- CN1C(=O)C[C@H](c2ccccc2)C1=O [TAB113] | potency 5.6 nM (inhibitor, full curve, poor fit)
- CN1C(=O)C[C@H](c2ccccc2)C1=O [CP265] | potency 50.1 nM (activator, full curve)
- CN1C(=O)C[C@H](c2ccccc2)C1=O [CP237] | potency 12.6 nM (activator, full curve, poor fit)

3 of the entries, repeated:

Compound	setting	potency (nM)	curve as filed
CN1C(=O)C[C@H](c2ccccc2)C1=O	CP265	50.1	activator, full curve
C=CCC1(C(C)CCC)C(=O)N=C(S)NC1=O (stereo not shown)	CP291	16944	inhibitor, single point
C=CCC1(C(C)CCC)C(=O)N=C(S)NC1=O (stereo not shown)	CP329	16944	inhibitor, single point